The target of assay [1] is T1, AQP1 (Aquaporin1) (human (endogenous in breast cancer tissue)) (UniProt P29972).
T1 sequence: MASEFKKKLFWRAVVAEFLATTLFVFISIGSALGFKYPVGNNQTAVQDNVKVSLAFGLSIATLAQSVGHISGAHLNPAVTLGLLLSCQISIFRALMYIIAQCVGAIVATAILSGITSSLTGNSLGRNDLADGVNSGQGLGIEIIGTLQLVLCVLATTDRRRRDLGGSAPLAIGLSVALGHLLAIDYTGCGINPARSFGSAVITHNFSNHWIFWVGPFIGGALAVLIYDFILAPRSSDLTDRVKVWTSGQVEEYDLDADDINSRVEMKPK
Briefly: co-IP; lysates of breast cancer tissues in Co-IP lysis buffer (pH 7.4), 4 °C; western blot. (A western blot detects proteins with antibodies after separation by electrophoresis.)

The chains behind the UniProt entries cited, without tags or fusion partners.
UniProt P35222: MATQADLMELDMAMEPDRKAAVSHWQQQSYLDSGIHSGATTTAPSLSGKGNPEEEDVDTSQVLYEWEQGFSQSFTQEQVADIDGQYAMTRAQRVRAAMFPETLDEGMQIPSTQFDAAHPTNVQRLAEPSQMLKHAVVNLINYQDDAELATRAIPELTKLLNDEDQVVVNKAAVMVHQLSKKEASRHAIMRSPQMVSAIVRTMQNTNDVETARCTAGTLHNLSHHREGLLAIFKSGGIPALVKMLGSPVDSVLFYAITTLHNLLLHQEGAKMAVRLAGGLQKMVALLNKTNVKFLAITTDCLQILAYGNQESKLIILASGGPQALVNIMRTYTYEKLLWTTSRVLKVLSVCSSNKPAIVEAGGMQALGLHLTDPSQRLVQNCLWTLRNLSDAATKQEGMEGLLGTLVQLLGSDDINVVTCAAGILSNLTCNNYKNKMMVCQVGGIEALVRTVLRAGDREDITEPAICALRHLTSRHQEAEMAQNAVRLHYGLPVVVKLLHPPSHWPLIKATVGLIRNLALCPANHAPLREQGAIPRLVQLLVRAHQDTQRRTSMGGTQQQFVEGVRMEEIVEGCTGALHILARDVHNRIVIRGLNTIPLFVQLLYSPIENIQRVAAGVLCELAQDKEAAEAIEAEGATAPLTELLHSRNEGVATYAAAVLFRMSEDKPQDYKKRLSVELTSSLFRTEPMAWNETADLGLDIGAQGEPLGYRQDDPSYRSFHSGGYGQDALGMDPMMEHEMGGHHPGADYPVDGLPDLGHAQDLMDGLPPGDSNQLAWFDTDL

Assay [2] deals with T2, Flag-AQP1 (UniProt P29972).
T2 sequence: T1 sequence
The assay is described as follows: co-IP; lysates of MDA-MB-231 cells stably expressing Flag-AQP1 or Flag-labeled AQP1 fragments; anti-flag M2 affinity gel, eluted with flag peptides; western blot for β-catenin.

No constants are given. Whether binding was seen depends on the method and setting. Binding seen in cells or lysates may run through a third protein. Some binding calls cover weakened binding; strength is not graded here. For some assays here: Where a sequence is shown, tags or fusion partners need not be part of it.

β-catenin (from UniProt P35222 1-781): the binding result in assay [1] and in assay [2] was “binds” each time.

Values taken from PMC7852611.
